Test results from the supplement of paper PMC12067093, “Discovery and optimisation of a covalent ligand for TRIM25 and its application to targeted protein ubiquitination” (Chemical Science, 2025).
This is one part of the list.

Compound: Cc1cc(ccc1-c1ccccc1)C(=O)N1CCCN(CC1)C(=O)CCl [compound 10]
Assay: probe-labelled cysteine peptide fold change vs DMSO (competition) (log2 fold change); higher = less target engagement (more negative = stronger competition)
Details: THP-1, incubation time: 4 h
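Also: competitive profiling in live THP-1 cells: cysteine peptides tagged with an iodoacetamide desthiobiotin (IA-DTB) probe, intensity after compound treatment relative to DMSO-treated cells.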

| Target | probe-labelled cysteine peptide fold change (10 µM) | probe-labelled cysteine peptide fold change (50 µM) |
| --- | --- | --- |
| NASP_P49321_84_KYGETANECGEAFFFYGK (UniProt P49321) | 0.146 | -0.0732 |
| NAE1_Q13564_460_SCLTGFLQEYGLSVMVK (UniProt Q13564) | 0.161 | 0.442 |
| NCAPH_Q15003_397_EPCQVQSCQEEMISLGDGDIR (UniProt Q15003) | -0.654 | -0.767 |
| NAA50_Q9GZZ1_61_LAYFNDIAVGAVCCR (UniProt Q9GZZ1) | 0.0194 | -0.105 |
| MYO1F_O00160_807_GQVCEVLKK (UniProt O00160) | -0.225 | -0.287 |
| NCAPG_Q9BPX3_509_EALENCITLQDFNR (UniProt Q9BPX3) | 0.192 | 0.18 |
| N4BP2_Q86UW6_1096_STFVEESELTSADESENLNILCK (UniProt Q86UW6) | -0.0224 | -0.343 |
| NAGA_P17050_343_ASALVFFSCR (UniProt P17050) | -0.066 | 0.1 |
| MYO18A_Q92614_404_ANAPSCDR (UniProt Q92614) | -0.127 | 0.317 |
| NBEAL2_Q6ZNJ1_245_GPAPDPCLVPLALEALVGAVHVLHASR (UniProt Q6ZNJ1) | -0.141 | -0.616 |
| NAGA_P17050_80_DMGYTYLNIDDCWIGGR (UniProt P17050) | -0.126 | 0.051 |
| MYO9B_Q13459_34_EQAAYHLHIYPQLSTTESQASCR (UniProt Q13459) | 0.137 | 0.0986 |
| NCK1_P16333_340_ETVYCIGQR (UniProt P16333) | 0.0463 | -0.0537 |
| NBEAL2_Q6ZNJ1_142_GTQLENVALHALLLCEGLFDPYQTWR (UniProt Q6ZNJ1) | 0.147 | 0.105 |
| NASP_P49321_568_LGEVSVESENYVQAVEEFQSCLNLQEQYLEAHDR (UniProt P49321) | 0.0149 | 0.425 |
| MYOF_Q9NZM1_1425_ASLLSAPPCR (UniProt Q9NZM1) | -0.131 | -0.138 |
| MYO18A_Q92614_1164_SSCCMGLSR (UniProt Q92614) | 0.000388 | -0.0802 |
| MYO1G_B0I1T2_979_VSDCIPLSHR (UniProt B0I1T2) | 0.044 | 0.618 |
| NAT10_Q9H0A0_105_YCYYNETHK (UniProt Q9H0A0) | 0.142 | 0.294 |
| MYOF_Q9NZM1_1167_DSFSDPYAHICFLHR (UniProt Q9NZM1) | 0.0801 | 0.0689 |
| NAGK_Q9UJ70_268_IGLPILCVGSVWK (UniProt Q9UJ70) | -0.159 | 0.652 |

Taken from above:
MYO1F_O00160_807_GQVCEVLKK (UniProt O00160) | probe-labelled cysteine peptide fold change (10 µM): -0.225
MYOF_Q9NZM1_1425_ASLLSAPPCR (UniProt Q9NZM1) | probe-labelled cysteine peptide fold change (50 µM): -0.138
MYO9B_Q13459_34_EQAAYHLHIYPQLSTTESQASCR (UniProt Q13459) | probe-labelled cysteine peptide fold change (10 µM): 0.137

Next entries:

| Target | probe-labelled cysteine peptide fold change (10 µM) | probe-labelled cysteine peptide fold change (50 µM) |
| --- | --- | --- |
| NAPA_P54920_66_NWSAAGNAFCQAAQLHLQLQSK (UniProt P54920) | 0.0996 | -0.00462 |
| NCAPD3_P42695_588_HCDVSGMKEDLWILQDQCRDPAVSVR (UniProt P42695) | -0.104 | -0.377 |
| NAT1_P18440_223+233_SFCSLQTPDGVHCLVGFTLTHR (UniProt P18440) | 0.158 | 0.168 |
| NBEAL1_Q6ZS30_271_CLTEVVHILLSSNSDQR (UniProt Q6ZS30) | 0.268 | 0.156 |
| NCAPD2_Q15021_1229_DLAYCVSQLPLTER (UniProt Q15021) | -0.143 | -0.177 |
| NCAPG_Q9BPX3_751_HCLGVFFPVFAYASR (UniProt Q9BPX3) | -0.0707 | -0.0217 |
| NAE1_Q13564_384_LLCSNSAFLR (UniProt Q13564) | -0.12 | -0.0585 |
| NARS2_Q96I59_359_HCGNIPVFVINYPLTLK (UniProt Q96I59) | 0.0898 | 0.878 |
| NCAM2_O15394_232_GEEMTFSCR (UniProt O15394) | -0.145 | -0.0222 |
| NAA16_Q6N069_529_HFFEITDDQFDFHTYCMR (UniProt Q6N069) | 0.0727 | 0.323 |
| NBR1_Q14596_433_DVLVPCLK (UniProt Q14596) | 0.0253 | -0.0476 |
| N4BP2_Q86UW6_1561_DHNYSLEHTVQFLNCVLEGDPVK (UniProt Q86UW6) | -0.107 | -0.591 |
| NACC2_Q96BF6_441_ESEMNVIAADMCTNAR (UniProt Q96BF6) | 0.172 | -0.264 |
| NCBP1_Q09161_320_FVIEENLHCIIK (UniProt Q09161) | 0.00618 | -0.00415 |
| NCBP1_Q09161_332_KTCAAQLVSYPGK (UniProt Q09161) | -0.0591 | -0.681 |
| MYO18A_Q92614_604_RPASEATFNVFYYLLACGDGTLR (UniProt Q92614) | 0.123 | 0.668 |
| NAPRT_Q6XQN6_533_LQALVNSLCAGQSP (UniProt Q6XQN6) | -0.129 | 0.0286 |
| NAE1_Q13564_153_LADVLWNSQIPLLICR (UniProt Q13564) | 0.0606 | 0.139 |
| MYSM1_Q5VVJ2_360_NLNDNEMLFHSCQMVEESHEEEELKPPEQEIEIDR (UniProt Q5VVJ2) | -0.777 | -0.807 |
| NCAPG2_Q86XI2_776_ECLLSAPR (UniProt Q86XI2) | 0.195 | -0.122 |
| NCAM2_O15394_136_QGEDAEVVCR (UniProt O15394) | -0.288 | -0.0604 |

| Target | probe-labelled cysteine peptide fold change (10 µM) | probe-labelled cysteine peptide fold change (50 µM) |
| --- | --- | --- |
| NADK_O95544_69_SLHGPCPVTTFGPK (UniProt O95544) | -0.122 | -0.362 |
| MYO6_Q9UM54_1265_CGGIQYLQNAIESR (UniProt Q9UM54) | -0.0129 | 0.0704 |
| MYO6_Q9UM54_321_MCTAMK (UniProt Q9UM54) | 0.00117 | -0.218 |
| NAA50_Q9GZZ1_100_MLNHVLNICEK (UniProt Q9GZZ1) | 0.0552 | 0.109 |
| MYO9B_Q13459_1169_HIQSCK (UniProt Q13459) | -0.0592 | -0.369 |
| NCAPG2_Q86XI2_964_MLECIAR (UniProt Q86XI2) | 0.193 | 0.164 |
| NCAPH_Q15003_114_FTNTQITEHYSTCIK (UniProt Q15003) | 0.194 | -0.273 |
| NAXE_Q8NCW5_115_SPPTVLVICGPGNNGGDGLVCAR (UniProt Q8NCW5) | -0.0561 | -0.201 |
| NADSYN1_Q6IA69_686_CIENQVLQLER (UniProt Q6IA69) | -0.0444 | -0.0355 |
| NCAM1_P13591_829_GPVEAKPECQETETK (UniProt P13591) | 0.0715 | 0.228 |
| MYO18A_Q92614_508_TTSCQHLVQYLATIAGISGNK (UniProt Q92614) | 0.00882 | 0.4 |
| NAXE_Q8NCW5_127_SPPTVLVICGPGNNGGDGLVCAR (UniProt Q8NCW5) | 0.093 | 0.383 |
| NAA40_Q86UY6_59_NGLNVSIECK (UniProt Q86UY6) | 0.0107 | 0.0422 |
| NAXD_Q8IW45_82_IGVVGGCQEYTGAPYFAAISALK (UniProt Q8IW45) | -0.148 | -0.00057 |
| NCAPG2_Q86XI2_401_STGILGVCK (UniProt Q86XI2) | 0.0223 | -0.123 |
| NAPRT_Q6XQN6_463_VWPPGAQEPCTVRPAQVEPLLR (UniProt Q6XQN6) | -0.107 | -0.0643 |
| NBN_O60934_478_ERDEENQEMSSCK (UniProt O60934) | -0.438 | -0.348 |
| NBEAL2_Q6ZNJ1_822_TLCTLGPNETAPFKPEGELHELSTR (UniProt Q6ZNJ1) | -0.232 | -0.31 |
| NCK2_O43639_343_VQLVDNVYCIGQR (UniProt O43639) | 0.254 | 0.126 |
| NAGA_P17050_38+42_CNINCDEDPK (UniProt P17050) | 0.0241 | -0.131 |
| MYO6_Q9UM54_375_SAQSLEYCAELLGLDQDDLR (UniProt Q9UM54) | -0.143 | -0.375 |

| Target | probe-labelled cysteine peptide fold change (10 µM) | probe-labelled cysteine peptide fold change (50 µM) |
| --- | --- | --- |
| NCAPG_Q9BPX3_177_DDECPVVNAYATLIENDSNPEVR (UniProt Q9BPX3) | -0.241 | -0.294 |
| NCKAP1L_P55160_338_EHVIANSGQFHCQR (UniProt P55160) | -0.0156 | -0.232 |
| NCBP1_Q09161_231_PHPQEEYLDCLWAQIQK (UniProt Q09161) | 0.118 | 0.343 |
| NAP1L4_Q99733_247_ADPFSFEGPEIVDCDGCTIDWKK (UniProt Q99733) | 0.089 | 0.0132 |
| NCAPG2_Q86XI2_498_ICPMEHILVR (UniProt Q86XI2) | -0.15 | 0.0269 |
| MYOF_Q9NZM1_1392_KPVVGQCTIER (UniProt Q9NZM1) | -0.0854 | -0.147 |
| MYO9B_Q13459_234_RVNQCIVISGESGSGK (UniProt Q13459) | 0.0998 | 0.311 |
| NCBP1_Q09161_36_TSDANETEDHLESLICK (UniProt Q09161) | 0.119 | 0.291 |
| NAB2_Q15742_499_CPAPGPHPALVEGR (UniProt Q15742) | 0.15 | 0.289 |
| NCAPG_Q9BPX3_843_ICNEILTSPCSPEIR (UniProt Q9BPX3) | 0.135 | -0.0501 |
| NCEH1_Q6PIU2_345_TYILTCEHDVLR (UniProt Q6PIU2) | -0.0189 | 0.271 |
| MYOF_Q9NZM1_1574_GLELQPQDNNGLCDPYIK (UniProt Q9NZM1) | 0.0635 | 0.245 |
| MYO18A_Q92614_404_ANAPSCDRLEDLASLVYLNESSVLHTLR (UniProt Q92614) | -0.129 | -0.0504 |
| NCBP1_Q09161_231_THVPMLQVWTADKPHPQEEYLDCLWAQIQK (UniProt Q09161) | 0.00459 | 0.0362 |
| NCAM2_O15394_380_YDCEAASR (UniProt O15394) | 0.118 | 0.298 |
| N4BP1_O75113_89_DMHCIFVGAESLFLK (UniProt O75113) | -0.00521 | -0.223 |
| NCAM2_O15394_42_FFTCTAIGEPESIDWYNPQGEK (UniProt O15394) | 0.0886 | 0.13 |
| NCAPH2_Q6IBW4_230_DTGRTEEQPMEVSVCR (UniProt Q6IBW4) | -0.479 | -0.423 |
| NCBP1_Q09161_409_LDTMNTTCVDR (UniProt Q09161) | -0.127 | 0.385 |
| NAPRT_Q6XQN6_48_RCPFGGAFALAAGLR (UniProt Q6XQN6) | -0.818 | 0.199 |
| NAPA_P54920_212_AALCHFCIDMLNAK (UniProt P54920) | 0.0526 | 0.0407 |
